Results on one molecule are retold here after PMC6751184, “Heme and hemoglobin utilization by Mycobacterium tuberculosis” (Nature Communications, 2019).

Results are given in words; binding and its absence hold for the method and conditions named. Where a sequence is shown, tags or fusion partners need not be part of it.

The assay has as its target DppA of Mycobacterium tuberculosis (Rv3666c), lacking the predicted signal peptide (M. tuberculosis) (UniProt A5U8Y9). Briefly: SEC; both purified. In general terms: SEC sorts molecules by how far they enter the pores of the column.

B1: DppA of Mycobacterium tuberculosis (Rv3666c), lacking the predicted signal peptide (protein, UniProt A5U8Y9 26-541)
chain: GGGVLSPDVVLVNGGEPPNPLIPTGTNDSNGGRIIDRLFAGLMSYDAVGKPSLEVAQSIESADNVNYRITVKPGWKFTDGSPVTAHSFVDAWNYGALSTNAQLQQHFFSPIEGFDDVAGAPGDKSRTTMSGLRVVNDLEFTVRLKAPTIDFTLRLGHSSFYPLPDSAFRDMAAFGRNPIGNGPYKLADGPAGPAWEHNVRIDLVPNPDYHGNRKPRNKGLRFEFYANLDTAYADLLSGNLDVLDTIPPSALTVYQRDLGDHATSGPAAINQTLDTPLRLPHFGGEEGRLRRLALSAAINRPQICQQIFAGTRSPARDFTARSLPGFDPNLPGNEVLDYDPQRARRLWAQADAISPWSGRYAIAYNADAGHRDWVDAVANSIKNVLGIDAVAAPQPTFAGFRTQITNRAIDSAFRAGWRGDYPSMIEFLAPLFTAGAGSNDVGYINPEFDAALAAAEAAPTLTESHELVNDAQRILFHDMPVVPLWDYISVVGWSSQVSNVTVTWNGLPDYENIVKA
Take B1: the binding entry is “no binding”.
